According to paper PMC11362597:
Results are given in words; binding and its absence hold for the method and conditions named. In cells and extracts the contact can be indirect. Here binding means that the protein was enriched with, or labelled near, the bait; the list need not be complete.

B1: MAP2K3 (protein, UniProt P46734 1-347)
chain: MESPASSQPASMPQSKGKSKRKKDLRISCMSKPPAPNPTPPRNLDSRTFITIGDRNFEVEADDLVTISELGRGAYGVVEKVRHAQSGTIMAVKRIRATVNSQEQKRLLMDLDINMRTVDCFYTVTFYGALFREGDVWICMELMDTSLDKFYRKVLDKNMTIPEDILGEIAVSIVRALEHLHSKLSVIHRDVKPSNVLINKEGHVKMCDFGISGYLVDSVAKTMDAGCKPYMAPERINPELNQKGYNVKSDVWSLGITMIEMAILRFPYESWGTPFQQLKQVVEEPSPQLPADRFSPEFVDFTAQCLRKNPAERMSYLELMEHPFFTLHKTKKTDIAAFVKEILGEDS
B2: PPM1F (protein, UniProt P49593 1-454)
chain: MSSGAPQKSSPMASGAEETPGFLDTLLQDFPALLNPEDPLPWKAPGTVLSQEEVEGELAELAMGFLGSRKAPPPLAAALAHEAVSQLLQTDLSEFRKLPREEEEEEEDDDEEEKAPVTLLDAQSLAQSFFNRLWEVAGQWQKQVPLAARASQRQWLVSIHAIRNTRRKMEDRHVSLPSFNQLFGLSDPVNRAYFAVFDGHGGVDAARYAAVHVHTNAARQPELPTDPEGALREAFRRTDQMFLRKAKRERLQSGTTGVCALIAGATLHVAWLGDSQVILVQQGQVVKLMEPHRPERQDEKARIEALGGFVSHMDCWRVNGTLAVSRAIGDVFQKPYVSGEADAASRALTGSEDYLLLACDGFFDVVPHQEVVGLVQSHLTRQQGSGLRVAEELVAAARERGSHDNITVMVVFLRDPQELLEGGNQGEGDPQAEGRRQDLPSSLPEPETQAPPRS
B3: YWHAH (protein, UniProt Q04917 1-246)
chain: MGDREQLLQRARLAEQAERYDDMASAMKAVTELNEPLSNEDRNLLSVAYKNVVGARRSSWRVISSIEQKTMADGNEKKLEKVKAYREKIEKELETVCNDVLSLLDKFLIKNCNDFQYESKVFYLKMKGDYYRYLAEVASGEKKNSVVEASEAAYKEAFEISKEQMQPTHPIRLGLALNFSVFYYEIQNAPEQACLLAKQAFDDAIAELDTLNEDSYKDSTLIMQLLRDNLTLWTSDQQDEEAGEGN
B4: ACSL1 (protein, UniProt P33121 1-698)
chain: MQAHELFRYFRMPELVDFRQYVRTLPTNTLMGFGAFAALTTFWYATRPKPLKPPCDLSMQSVEVAGSGGARRSALLDSDEPLVYFYDDVTTLYEGFQRGIQVSNNGPCLGSRKPDQPYEWLSYKQVAELSECIGSALIQKGFKTAPDQFIGIFAQNRPEWVIIEQGCFAYSMVIVPLYDTLGNEAITYIVNKAELSLVFVDKPEKAKLLLEGVENKLIPGLKIIVVMDAYGSELVERGQRCGVEVTSMKAMEDLGRANRRKPKPPAPEDLAVICFTSGTTGNPKGAMVTHRNIVSDCSAFVKATENTVNPCPDDTLISFLPLAHMFERVVECVMLCHGAKIGFFQGDIRLLMDDLKVLQPTVFPVVPRLLNRMFDRIFGQANTTLKRWLLDFASKRKEAELRSGIIRNNSLWDRLIFHKVQSSLGGRVRLMVTGAAPVSATVLTFLRAALGCQFYEGYGQTECTAGCCLTMPGDWTAGHVGAPMPCNLIKLVDVEEMNYMAAEGEGEVCVKGPNVFQGYLKDPAKTAEALDKDGWLHTGDIGKWLPNGTLKIIDRKKHIFKLAQGEYIAPEKIENIYMRSEPVAQVFVHGESLQAFLIAIVVPDVETLCSWAQKRGFEGSFEELCRNKDVKKAILEDMVRLGKDSGLKPFEQVKGITLHPELFSIDNGLLTPTMKAKRPELRNYFRSQIDDLYSTIKV
B5: NCF4 (protein, UniProt Q15080 1-339)
chain: MAVAQQLRAESDFEQLPDDVAISANIADIEEKRGFTSHFVFVIEVKTKGGSKYLIYRRYRQFHALQSKLEERFGPDSKSSALACTLPTLPAKVYVGVKQEIAEMRIPALNAYMKSLLSLPVWVLMDEDVRIFFYQSPYDSEQVPQALRRLRPRTRKVKSVSPQGNSVDRMAAPRAEALFDFTGNSKLELNFKAGDVIFLLSRINKDWLEGTVRGATGIFPLSFVKILKDFPEEDDPTNWLRCYYYEDTISTIKDIAVEEDLSSTPLLKDLLELTRREFQREDIALNYRDAEGDLVRLLSDEDVALMVRQARGLPSQKRLFPWKLHITQKDNYRVYNTMP
B6: ALOX5AP (protein, UniProt P20292 1-161)
chain: MDQETVGNVVLLAIVTLISVVQNGFFAHKVEHESRTQNGRSFQRTGTLAFERVYTANQNCVDAYPTFLAVLWSAGLLCSQVPAAFAGLMYLFVRQKYFVGYLGERTQSTPGYIFGKRIILFLFLMSVAGIFNYYLIFFFGSDFENYIKTISTTISPLLLIP
B7: ARAP1 (protein, UniProt Q96P48 1-1450)
chain: MAEAGDAALSVAEWLRALHLEQYTGLFEQHGLVWATECQGLSDTRLMDMGMLLPGHRRRILAGLLRAHTSPAPAPRPTPRPVPMKRHIFRSPPVPATPPEPLPTTTEDEGLPAAPPIPPRRSCLPPTCFTTPSTAAPDPVLPPLPAKRHLAELSVPPVPPRTGPPRLLVSLPTKEEESLLPSLSSPPQPQSEEPLSTLPQGPPQPPSPPPCPPEIPPKPVRLFPEFDDSDYDEVPEEGPGAPARVMTKKEEPPPSRVPRAVRVASLLSEGEELSGDDQGDEEEDDHAYEGVPNGGWHTSSLSLSLPSTIAAPHPMDGPPGGSTPVTPVIKAGWLDKNPPQGSYIYQKRWVRLDTDHLRYFDSNKDAYSKRFISVACISHVAAIGDQKFEVITNNRTFAFRAESDVERKEWMQALQQAMAEQRARARLSSAYLLGVPGSEQPDRAGSLELRGFKNKLYVAVVGDKVQLYKNLEEYHLGIGITFIDMSVGNVKEVDRRSFDLTTPYRIFSFSADSELEKEQWLEAMQGAIAEALSTSEVAERIWAAAPNRFCADCGAPQPDWASINLCVVICKRCAGEHRGLGAGVSKVRSLKMDRKVWTETLIELFLQLGNGAGNRFWAANVPPSEALQPSSSPSTRRCHLEAKYREGKYRRYHPLFGNQEELDKALCAAVTTTDLAETQALLGCGAGINCFSGDPEAPTPLALAEQAGQTLQMEFLRNNRTTEVPRLDSMKPLEKHYSVVLPTVSHSGFLYKTASAGKLLQDRRAREEFSRRWCVLGDGVLSYFENERAVTPNGEIRASEIVCLAVPPPDTHGFEHTFEVYTEGERLYLFGLESAEQAHEWVKCIAKAFVPPLAEDLLARDFERLGRLPYKAGLSLQRAQEGWFSLSGSELRAVFPEGPCEEPLQLRKLQELSIQGDSENQVLVLVERRRTLYIQGERRLDFMGWLGAIQKAAASMGDTLSEQQLGDSDIPVIVYRCVDYITQCGLTSEGIYRKCGQTSKTQRLLESLRQDARSVHLKEGEQHVDDVSSALKRFLRDLPDGLFTRAQRLTWLEASEIEDEEEKVSRYRELLVRLPPVNRATVKALISHLYCVQCFSDTNQMNVHNLAIVFGPTLFQTDGQDYKAGRVVEDLINHYVVVFSVDEEELRKQREEITAIVKMRVAGTASGTQHAGDFICTVYLEEKKAETEQHIKVPASMTAEELTLEILDRRNVGIREKDYWTCFEVNEREEAERPLHFAEKVLPILHGLGTDSHLVVKKHQAMEAMLLYLASRVGDTKHGMMKFREDRSLLGLGLPSGGFHDRYFILNSSCLRLYKEVRSQRPWSGAPETSHRPEKEWPIKSLKVYLGVKKKLRPPTCWGFTVVHETEKHEKQQWYLCCDTQMELREWFATFLFVQHDGLVWPSEPSRVSRAVPEVRLGSVSLIPLRGSENEMRRSVAAFTADPLSLLRNV
B8: CAPG (protein, UniProt P40121 1-348)
chain: MYTAIPQSGSPFPGSVQDPGLHVWRVEKLKPVPVAQENQGVFFSGDSYLVLHNGPEEVSHLHLWIGQQSSRDEQGACAVLAVHLNTLLGERPVQHREVQGNESDLFMSYFPRGLKYQEGGVESAFHKTSTGAPAAIKKLYQVKGKKNIRATERALNWDSFNTGDCFILDLGQNIFAWCGGKSNILERNKARDLALAIRDSERQGKAQVEIVTDGEEPAEMIQVLGPKPALKEGNPEEDLTADKANAQAAALYKVSDATGQMNLTKVADSSPFALELLISDDCFVLDNGLCGKIYIWKGRKANEKERQAALQVAEGFISRMQYAPNTQVEILPQGHESPIFKQFFKDWK

The binders below were run against T1, endogenous ARHGAP25 (human (endogenous in neutrophilic granulocytes)) (UniProt P42331) (assay: affinity purification with mass spectrometry; co-immunoprecipitation of endogenous ARHGAP25: magnetic beads coated with polyclonal ARHGAP25 antibody (control: rabbit IgG) incubated with intact total neutrophil lysate, 45 min, 4 °C; washed thrice with PBST; eluates measured by mass spectrometry).
T1 sequence: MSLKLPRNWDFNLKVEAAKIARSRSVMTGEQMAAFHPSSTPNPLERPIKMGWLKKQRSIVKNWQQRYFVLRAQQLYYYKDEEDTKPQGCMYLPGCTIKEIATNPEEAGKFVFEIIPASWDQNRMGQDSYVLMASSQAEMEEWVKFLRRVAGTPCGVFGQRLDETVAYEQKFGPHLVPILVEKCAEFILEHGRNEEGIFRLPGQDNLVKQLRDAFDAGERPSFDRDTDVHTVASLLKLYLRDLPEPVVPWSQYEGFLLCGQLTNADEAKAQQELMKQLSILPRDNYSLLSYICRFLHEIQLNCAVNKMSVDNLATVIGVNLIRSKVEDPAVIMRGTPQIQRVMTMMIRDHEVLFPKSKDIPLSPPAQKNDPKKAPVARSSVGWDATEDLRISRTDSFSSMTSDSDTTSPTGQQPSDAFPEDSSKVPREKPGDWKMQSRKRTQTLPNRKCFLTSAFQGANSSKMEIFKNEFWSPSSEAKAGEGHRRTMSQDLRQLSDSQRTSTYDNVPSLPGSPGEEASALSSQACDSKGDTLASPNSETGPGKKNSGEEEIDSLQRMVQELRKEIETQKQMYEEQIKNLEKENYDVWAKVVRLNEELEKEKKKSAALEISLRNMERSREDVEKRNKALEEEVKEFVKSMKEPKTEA

Row | Binder | binding
1 | B1 | binds
2 | B2 | binds
3 | B3 | binds
4 | B4 | binds
5 | B5 | binds

Each binder was assayed against GST-fused recombinant ARHGAP25 (human) (UniProt P42331) (assay: affinity purification with mass spectrometry; GST-ARHGAP25 (control: GST) on glutathione agarose beads incubated with intact total lysate of human neutrophilic granulocytes, 45 min, 4 °C; washed thrice with PBST; eluted by boiling in Laemmli buffer; LC-MS/MS, label-free quantification; only the target purified).

Row | Binder | binding
6 | B1 | binds
7 | B2 | binds
8 | B3 | binds
9 | B6 | binds
10 | B7 | binds
11 | B8 | binds
12 | B4 | binds
13 | B5 | binds
